This is one part of the list.
Assays:
Assay in all cases: log2 fold change, soluble protein after heating vs DMSO (PISA); higher = thermal stabilisation; K562 lysate, 10 uM; active = over 0.2 and 3.5 SD of the protein, either way, in both replicates (recomputed)
[1] = compound: C#Cc1cccc(Nc2ncnc3cc(OCCOC)c(OCCOC)cc23)c1 [erlotinib]
Method in brief: (§1)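 Values give the log-two fold change in thermal stability against solvent controls, from duplicates. Crude K562 extract at 1 mg/mL protein, made by dounce homogenisation in PBS pH 7.4 with 1 mM MgCl2, was treated with 10 μM compound for 30 min. After 3 min heating across 48°C-58°C, aliquots were pooled, adjusted to 0.5% NP-40 at 4°C and centrifuged at 21,000xg for 90 min. The supernatant was measured by TMTpro 16plex LC-MS/MS with channel sums equalised.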

By UniProt entry, the sequences of proteins in these tests, tags left out. Where a name states a change or a piece, a line headed by the entry shows the natural chain unless it says otherwise.
UniProt P35573: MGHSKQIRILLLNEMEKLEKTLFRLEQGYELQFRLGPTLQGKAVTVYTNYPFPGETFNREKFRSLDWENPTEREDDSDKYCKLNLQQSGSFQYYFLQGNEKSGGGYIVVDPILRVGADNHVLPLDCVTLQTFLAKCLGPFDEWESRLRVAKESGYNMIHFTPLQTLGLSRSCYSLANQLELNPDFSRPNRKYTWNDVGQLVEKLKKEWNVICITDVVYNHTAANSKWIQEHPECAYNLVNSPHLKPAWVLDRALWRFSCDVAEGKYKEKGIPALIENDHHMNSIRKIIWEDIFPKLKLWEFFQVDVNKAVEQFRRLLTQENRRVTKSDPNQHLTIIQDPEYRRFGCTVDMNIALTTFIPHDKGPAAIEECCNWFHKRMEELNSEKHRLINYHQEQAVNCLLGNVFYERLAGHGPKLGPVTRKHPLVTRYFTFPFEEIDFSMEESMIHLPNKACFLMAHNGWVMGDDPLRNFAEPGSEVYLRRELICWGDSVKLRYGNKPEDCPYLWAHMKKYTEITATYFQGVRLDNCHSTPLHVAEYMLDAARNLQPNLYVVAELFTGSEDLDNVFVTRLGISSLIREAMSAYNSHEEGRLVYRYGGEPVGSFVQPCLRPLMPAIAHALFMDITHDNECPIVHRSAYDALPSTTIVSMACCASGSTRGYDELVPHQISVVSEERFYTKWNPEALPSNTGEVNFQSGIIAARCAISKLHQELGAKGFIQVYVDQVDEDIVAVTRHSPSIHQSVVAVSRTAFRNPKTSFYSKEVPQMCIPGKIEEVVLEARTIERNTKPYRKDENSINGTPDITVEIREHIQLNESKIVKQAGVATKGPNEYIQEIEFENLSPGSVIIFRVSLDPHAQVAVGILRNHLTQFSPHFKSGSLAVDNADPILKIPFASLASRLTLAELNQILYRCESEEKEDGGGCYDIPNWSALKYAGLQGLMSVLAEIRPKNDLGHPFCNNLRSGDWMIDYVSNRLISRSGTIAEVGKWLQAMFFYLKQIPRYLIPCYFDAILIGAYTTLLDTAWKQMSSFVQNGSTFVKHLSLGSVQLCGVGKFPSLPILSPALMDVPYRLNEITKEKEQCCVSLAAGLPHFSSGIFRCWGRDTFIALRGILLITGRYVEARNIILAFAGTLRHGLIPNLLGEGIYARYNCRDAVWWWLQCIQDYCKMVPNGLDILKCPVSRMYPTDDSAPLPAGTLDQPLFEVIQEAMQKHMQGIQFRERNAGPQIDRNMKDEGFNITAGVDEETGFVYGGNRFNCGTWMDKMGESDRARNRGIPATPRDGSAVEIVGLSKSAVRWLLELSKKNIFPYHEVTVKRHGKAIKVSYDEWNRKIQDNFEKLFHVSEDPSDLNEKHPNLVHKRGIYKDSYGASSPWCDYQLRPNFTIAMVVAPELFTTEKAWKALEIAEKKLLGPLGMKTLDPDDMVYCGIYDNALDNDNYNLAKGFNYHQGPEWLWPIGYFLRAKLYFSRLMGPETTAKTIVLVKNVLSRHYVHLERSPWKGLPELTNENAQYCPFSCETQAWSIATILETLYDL
UniProt Q13155: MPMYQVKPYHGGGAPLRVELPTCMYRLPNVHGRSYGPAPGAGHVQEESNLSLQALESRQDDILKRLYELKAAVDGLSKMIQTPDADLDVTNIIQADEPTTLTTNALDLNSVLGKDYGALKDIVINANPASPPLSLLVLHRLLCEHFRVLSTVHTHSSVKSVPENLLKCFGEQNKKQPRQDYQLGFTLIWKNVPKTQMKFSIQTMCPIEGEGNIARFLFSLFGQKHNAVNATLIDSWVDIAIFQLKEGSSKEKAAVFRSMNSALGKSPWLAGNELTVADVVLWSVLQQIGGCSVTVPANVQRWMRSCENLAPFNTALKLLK
UniProt P23526: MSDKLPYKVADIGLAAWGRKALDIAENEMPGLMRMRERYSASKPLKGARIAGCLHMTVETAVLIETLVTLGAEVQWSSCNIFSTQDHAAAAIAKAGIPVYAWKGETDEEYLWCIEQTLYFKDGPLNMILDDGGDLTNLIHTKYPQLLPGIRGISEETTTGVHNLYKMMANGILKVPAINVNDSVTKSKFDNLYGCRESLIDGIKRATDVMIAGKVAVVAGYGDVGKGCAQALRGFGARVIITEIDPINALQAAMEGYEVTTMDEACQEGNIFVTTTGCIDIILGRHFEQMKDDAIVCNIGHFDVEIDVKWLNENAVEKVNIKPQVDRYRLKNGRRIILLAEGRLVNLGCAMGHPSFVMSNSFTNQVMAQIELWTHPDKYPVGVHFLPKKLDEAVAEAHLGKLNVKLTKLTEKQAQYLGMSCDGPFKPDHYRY
UniProt Q9Y6K8: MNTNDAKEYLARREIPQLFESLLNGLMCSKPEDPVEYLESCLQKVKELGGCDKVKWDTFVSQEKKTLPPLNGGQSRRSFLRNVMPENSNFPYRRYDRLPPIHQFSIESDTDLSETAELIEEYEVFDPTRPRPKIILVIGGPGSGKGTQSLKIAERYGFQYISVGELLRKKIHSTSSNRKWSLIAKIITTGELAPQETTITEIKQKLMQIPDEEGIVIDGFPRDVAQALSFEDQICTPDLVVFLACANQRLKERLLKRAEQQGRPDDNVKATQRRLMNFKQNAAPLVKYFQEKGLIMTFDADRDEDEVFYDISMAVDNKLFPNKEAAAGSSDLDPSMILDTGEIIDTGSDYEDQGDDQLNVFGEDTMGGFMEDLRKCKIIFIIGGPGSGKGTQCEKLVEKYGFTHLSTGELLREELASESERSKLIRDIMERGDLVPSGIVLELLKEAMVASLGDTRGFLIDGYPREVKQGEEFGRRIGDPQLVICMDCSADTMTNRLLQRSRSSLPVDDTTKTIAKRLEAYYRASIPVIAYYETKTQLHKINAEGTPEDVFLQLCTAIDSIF
UniProt P24666: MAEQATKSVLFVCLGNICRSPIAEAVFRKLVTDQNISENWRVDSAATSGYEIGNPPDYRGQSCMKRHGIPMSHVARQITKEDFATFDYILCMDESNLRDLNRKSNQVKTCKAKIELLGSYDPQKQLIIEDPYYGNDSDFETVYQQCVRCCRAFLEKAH
UniProt Q9UHX3: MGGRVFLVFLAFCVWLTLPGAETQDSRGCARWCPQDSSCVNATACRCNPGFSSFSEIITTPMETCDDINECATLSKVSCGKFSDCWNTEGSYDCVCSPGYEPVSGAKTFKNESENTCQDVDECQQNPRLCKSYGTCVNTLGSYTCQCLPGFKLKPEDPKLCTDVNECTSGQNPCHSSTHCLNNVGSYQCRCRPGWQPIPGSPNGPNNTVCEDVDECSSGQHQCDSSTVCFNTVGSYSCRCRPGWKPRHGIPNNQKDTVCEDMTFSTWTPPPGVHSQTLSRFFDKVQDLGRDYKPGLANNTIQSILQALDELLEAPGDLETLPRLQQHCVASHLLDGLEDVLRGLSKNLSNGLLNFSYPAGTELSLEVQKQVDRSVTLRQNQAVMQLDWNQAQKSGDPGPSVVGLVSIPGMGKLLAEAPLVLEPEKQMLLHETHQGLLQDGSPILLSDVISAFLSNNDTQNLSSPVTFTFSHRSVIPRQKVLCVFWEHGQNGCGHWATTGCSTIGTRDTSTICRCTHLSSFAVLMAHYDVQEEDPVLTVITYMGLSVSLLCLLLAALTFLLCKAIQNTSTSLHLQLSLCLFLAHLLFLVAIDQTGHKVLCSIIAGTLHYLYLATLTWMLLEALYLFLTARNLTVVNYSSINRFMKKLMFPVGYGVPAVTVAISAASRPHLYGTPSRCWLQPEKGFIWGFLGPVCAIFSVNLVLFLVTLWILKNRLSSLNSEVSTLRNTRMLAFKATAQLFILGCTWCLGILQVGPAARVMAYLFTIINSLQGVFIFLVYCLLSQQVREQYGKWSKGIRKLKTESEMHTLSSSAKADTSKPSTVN
UniProt O43865, whole entry, looked up: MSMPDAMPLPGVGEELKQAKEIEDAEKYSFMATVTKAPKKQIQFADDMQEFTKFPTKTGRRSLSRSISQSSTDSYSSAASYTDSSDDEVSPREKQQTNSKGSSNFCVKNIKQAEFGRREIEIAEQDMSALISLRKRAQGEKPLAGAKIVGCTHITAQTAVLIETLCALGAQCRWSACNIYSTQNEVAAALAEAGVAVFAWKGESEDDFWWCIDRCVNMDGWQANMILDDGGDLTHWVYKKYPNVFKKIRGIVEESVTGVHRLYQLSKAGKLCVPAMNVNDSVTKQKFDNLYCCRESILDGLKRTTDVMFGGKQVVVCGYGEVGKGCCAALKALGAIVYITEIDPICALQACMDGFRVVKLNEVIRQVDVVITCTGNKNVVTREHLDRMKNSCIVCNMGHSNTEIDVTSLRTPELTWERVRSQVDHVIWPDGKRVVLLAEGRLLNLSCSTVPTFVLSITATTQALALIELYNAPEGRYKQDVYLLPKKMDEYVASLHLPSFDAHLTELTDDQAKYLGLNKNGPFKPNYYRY
UniProt P30566: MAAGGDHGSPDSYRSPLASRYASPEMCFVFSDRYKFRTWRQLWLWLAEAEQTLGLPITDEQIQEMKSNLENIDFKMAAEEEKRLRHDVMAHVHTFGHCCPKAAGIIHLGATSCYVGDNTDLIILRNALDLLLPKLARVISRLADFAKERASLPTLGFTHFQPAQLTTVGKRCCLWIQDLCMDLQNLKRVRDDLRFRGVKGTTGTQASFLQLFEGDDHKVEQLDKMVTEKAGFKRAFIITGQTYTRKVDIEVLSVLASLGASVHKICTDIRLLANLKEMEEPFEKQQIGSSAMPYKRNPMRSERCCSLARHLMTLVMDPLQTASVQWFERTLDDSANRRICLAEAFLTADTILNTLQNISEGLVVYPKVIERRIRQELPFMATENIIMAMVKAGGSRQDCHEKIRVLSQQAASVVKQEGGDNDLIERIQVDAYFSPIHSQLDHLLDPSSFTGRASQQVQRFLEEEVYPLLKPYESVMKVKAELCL
UniProt Q8N142: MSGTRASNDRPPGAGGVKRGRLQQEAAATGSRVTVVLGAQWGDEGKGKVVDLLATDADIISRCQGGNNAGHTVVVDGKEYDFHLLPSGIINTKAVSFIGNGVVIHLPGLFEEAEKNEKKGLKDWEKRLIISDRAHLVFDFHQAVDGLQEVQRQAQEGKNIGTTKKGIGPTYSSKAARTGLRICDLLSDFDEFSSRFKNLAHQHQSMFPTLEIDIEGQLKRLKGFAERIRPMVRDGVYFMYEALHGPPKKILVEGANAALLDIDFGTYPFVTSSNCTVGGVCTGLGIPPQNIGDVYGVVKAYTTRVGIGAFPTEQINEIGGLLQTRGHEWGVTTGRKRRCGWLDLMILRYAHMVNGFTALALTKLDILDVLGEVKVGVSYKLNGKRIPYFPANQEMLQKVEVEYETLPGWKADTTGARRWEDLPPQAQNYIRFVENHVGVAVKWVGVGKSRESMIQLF
UniProt Q9NR19, whole entry, looked up: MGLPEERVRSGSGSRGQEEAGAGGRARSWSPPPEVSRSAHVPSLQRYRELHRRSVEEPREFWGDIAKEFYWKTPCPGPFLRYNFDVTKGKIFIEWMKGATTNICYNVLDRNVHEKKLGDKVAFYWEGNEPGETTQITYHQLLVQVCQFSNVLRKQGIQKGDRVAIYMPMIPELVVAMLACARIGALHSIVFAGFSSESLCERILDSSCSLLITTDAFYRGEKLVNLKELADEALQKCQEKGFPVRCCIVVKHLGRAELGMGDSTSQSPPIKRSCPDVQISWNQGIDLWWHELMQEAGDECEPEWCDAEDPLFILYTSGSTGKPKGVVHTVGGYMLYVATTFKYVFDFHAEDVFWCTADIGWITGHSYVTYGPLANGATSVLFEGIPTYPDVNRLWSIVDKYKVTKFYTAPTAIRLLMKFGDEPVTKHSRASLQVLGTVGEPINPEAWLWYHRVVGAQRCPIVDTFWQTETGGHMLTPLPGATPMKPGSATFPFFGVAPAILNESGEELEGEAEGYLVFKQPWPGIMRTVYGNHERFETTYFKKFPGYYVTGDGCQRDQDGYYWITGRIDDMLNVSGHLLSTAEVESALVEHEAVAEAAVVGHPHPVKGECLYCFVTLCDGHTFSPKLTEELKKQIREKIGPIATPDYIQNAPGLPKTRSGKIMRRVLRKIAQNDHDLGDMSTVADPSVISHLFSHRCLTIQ
UniProt Q9GZN1, whole entry, looked up: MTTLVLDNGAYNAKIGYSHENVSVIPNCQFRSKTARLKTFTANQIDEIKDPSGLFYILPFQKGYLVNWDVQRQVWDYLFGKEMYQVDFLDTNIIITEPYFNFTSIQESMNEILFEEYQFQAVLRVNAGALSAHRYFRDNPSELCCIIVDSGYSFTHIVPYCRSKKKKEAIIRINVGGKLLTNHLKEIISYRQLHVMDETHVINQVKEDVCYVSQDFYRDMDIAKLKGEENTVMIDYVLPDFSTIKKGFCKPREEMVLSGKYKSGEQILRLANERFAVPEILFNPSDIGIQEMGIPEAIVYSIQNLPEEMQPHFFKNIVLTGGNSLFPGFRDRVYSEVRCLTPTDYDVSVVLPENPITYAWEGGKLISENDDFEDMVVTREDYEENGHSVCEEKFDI

[2] = compound: C/C(=N\NC(=O)C1=CC(=CC=C1)S(=O)(=O)N2CCOCC2)/C3=C(C=CC(=C3)Cl)O
Method in brief: as §1

[3] = compound: C1=CC(=CC=C1C2=NC3=C(N2)C=C(C=C3)C(=O)N)OC4=CC=C(C=C4)Cl
Method in brief: as §1

[4] = compound: C1=CC2=C(C=CC(=C2)/C=C\3/C(=O)NC(=NCC4=CC=CS4)S3)N=C1
Method in brief: as §1

[5] = compound: C1=CC2=NC=CN=C2C=C1/C=C/3\C(=O)NC(=O)S3
Method in brief: as §1

[6] = compound: C1=CC=C(C=C1)C2=NC(=C(N2)C3=CC=NC=C3)C4=CC(=C(C=C4)Cl)O
Method in brief: as §1

[7] = compound: C1=CC=C2C(=C1)C3=NNC4=CC=CC(=C43)C2=O
Method in brief: as §1

[8] = compound: C1CCN(C1)C(=O)NC2=CC=CC(=C2)NC3=NC=C(C(=N3)NCCC4=CN=CN4)Br
Method in brief: as §1

[9] = compound: C1CN(CCC1(CC2=CC=C(C=C2)Cl)N)C3=NC=NC4=C3C=CN4
Method in brief: as §1

[10] = compound: C1COCCN1CCN2C3=CC=CC=C3N=C2NC(=O)C4=CC(=CC=C4)[N+](=O)[O-] [IRAK-1-4 Inhibitor I]
Method in brief: as §1

[11] = compound: C=CC(=O)N1CCC[C@@H](n2nc(-c3ccc(Oc4ccccc4)cc3)c3c(N)ncnc32)C1 [ibrutinib]
Method in brief: as §1

[12] = compound: CC(=O)c1cnc2ccc(-c3cc(Cl)c(O)c(Cl)c3)nc2c1N[C@H]1CC[C@H](CN(C)C)CC1
Method in brief: as §1

[13] = compound: CC(C)(C)Cn1c(N)nc2ccc(-c3[nH]c(C(C)(C)C)nc3-c3ccc(F)cc3)nc21 [ralimetinib]
Method in brief: as §1

[14] = compound: CC(C)(O)CC(=O)NCCn1ccc2ncnc(Nc3ccc(Oc4cccc(C(F)(F)F)c4)c(Cl)c3)c21
Method in brief: as §1

[15] = compound: CC(C)C1=C2N=C(C=C(N2N=C1)NCC3=CC=CC=C3)NCCCCCCN
Method in brief: as §1

[16] = compound: CC1=C(C(CC(=O)N1)C2=CC=C(C=C2)C(F)(F)F)C(=O)NC3=C(C=C4C(=C3)C=NN4)F
Method in brief: as §1

[17] = compound: CC1=C(C2=C(C=C1)C(=O)C3=CC=CC=C3N2CCCN)C
Method in brief: as §1

[18] = compound: CC1=C(C=C(C=C1)NC(=O)C2=CC(=CC=C2)C(C)(C)C#N)NC3=CC4=C(C=C3)N=CN(C4=O)C
Method in brief: as §1

[19] = compound: CC1=C(C=C(C=C1)NC(=O)C2=CC(=CC=C2)N(C)C)NC(=O)C3=CC=C(C=C3)O
Method in brief: as §1

[20] = compound: CC1=CC=C(C=C1)SC2=C3C=C(SC3=CN=C2)C(=O)N
Method in brief: as §1

Measured: log2 fold change

AGL (UniProt P35573)
inactive: [1] 0.007 | [2] 0.002 | [3] 0.003 | [4] -0.021 | [5] -0.01 | [6] 0.008 | [7] -0.035 | [8] -0.017 | [9] -0.006 | [10] 0.001 | [11] -0.007 | [12] 0.01 | [13] 0.048 | [14] 0.018 | [15] -0.006 | [16] -0.004 | [17] 0.021 | [18] -0.017 | [19] 0 | [20] 0.027

ADAMTS5 (UniProt Q9UNA0)
inactive: [1] 0.027 | [2] 0.004 | [3] 0.044 | [4] -0.05 | [5] -0.046 | [6] 0.049 | [7] -0.001 | [8] 0.058 | [9] 0.073 | [10] 0.123 | [11] 0.032 | [12] -0.057 | [13] -0.016 | [14] -0.186 | [15] -0.011 | [16] 0.008 | [17] -0.067 | [18] 0.093 | [19] -0.031 | [20] -0.076

AIMP2 (UniProt Q13155)
inactive: [1] 0.021 | [2] 0.062 | [3] -0.01 | [4] 0.006 | [5] 0.002 | [6] -0.016 | [7] -0.001 | [8] 0.014 | [9] -0.036 | [10] 0.008 | [11] 0 | [12] 0.013 | [13] 0.044 | [14] 0.015 | [15] 0.044 | [16] 0.002 | [17] 0.018 | [18] -0.005 | [19] 0.019 | [20] 0.028

Fetched one by one from above (2):
AIMP2 (UniProt Q13155)
inactive: [1] 0.021 | [2] 0.062 | [3] -0.01 | [4] 0.006 | [5] 0.002 | [6] -0.016 | [7] -0.001 | [8] 0.014 | [9] -0.036 | [10] 0.008 | [11] 0 | [12] 0.013 | [13] 0.044 | [14] 0.015 | [15] 0.044 | [16] 0.002 | [17] 0.018 | [18] -0.005 | [19] 0.019 | [20] 0.028

AGL (UniProt P35573)
inactive: [1] 0.007 | [2] 0.002 | [3] 0.003 | [4] -0.021 | [5] -0.01 | [6] 0.008 | [7] -0.035 | [8] -0.017 | [9] -0.006 | [10] 0.001 | [11] -0.007 | [12] 0.01 | [13] 0.048 | [14] 0.018 | [15] -0.006 | [16] -0.004 | [17] 0.021 | [18] -0.017 | [19] 0 | [20] 0.027

(list continues)

AHCY (UniProt P23526)
inactive: [1] -0.003 | [2] 0.046 | [3] 0.016 | [4] -0.019 | [5] -0.003 | [6] 0.022 | [7] 0.007 | [8] 0.008 | [9] -0.002 | [10] 0.015 | [11] 0.005 | [12] -0.01 | [13] 0.008 | [14] 0.052 | [15] 0.001 | [16] -0.038 | [17] 0.001 | [18] -0.002 | [19] -0.026 | [20] 0.003

AK5 (UniProt Q9Y6K8)
inactive: [1] -0.07 | [2] 0.017 | [3] -0.026 | [4] 0.016 | [5] 0.008 | [6] -0.038 | [7] 0.065 | [8] 0.033 | [9] 0.009 | [10] -0.04 | [11] 0.024 | [12] -0.01 | [13] 0.004 | [14] -0.023 | [15] 0.063 | [16] -0.138 | [17] -0.052 | [18] -0.043 | [19] -0.008 | [20] -0.001

ACP1 (UniProt P24666)
inactive: [1] 0.044 | [2] 0.081 | [3] -0.008 | [4] -0.023 | [5] 0.035 | [6] 0.041 | [7] 0.033 | [8] 0.023 | [9] 0.028 | [10] -0.031 | [11] -0.002 | [12] 0.047 | [13] -0.021 | [14] -0.009 | [15] 0.009 | [16] -0.063 | [17] 0 | [18] 0.027 | [19] 0.064 | [20] -0.016

ACTR3 (UniProt P61158)
inactive: [1] -0.018 | [2] -0.009 | [3] 0.015 | [4] 0.003 | [5] -0.008 | [6] -0.006 | [7] -0.023 | [8] -0.012 | [9] -0.01 | [10] 0.027 | [11] 0.009 | [12] -0.009 | [13] 0.042 | [14] 0.015 | [15] -0.013 | [16] 0.007 | [17] 0.056 | [18] -0.022 | [19] 0.006 | [20] -0.013

ADGRE2 (UniProt Q9UHX3)
inactive: [1] -0.061 | [2] 0.059 | [3] 0.019 | [4] -0.02 | [5] -0.025 | [6] -0.004 | [7] -0.08 | [8] 0.031 | [9] -0.038 | [10] -0.011 | [11] 0.041 | [12] -0.052 | [13] -0.04 | [14] -0.071 | [15] -0.06 | [16] 0.049 | [17] -0.01 | [18] 0 | [19] 0.006 | [20] -0.084

AGO3 (UniProt Q9H9G7)
inactive: [1] -0.021 | [2] -0.039 | [3] 0.005 | [4] -0.009 | [5] 0.027 | [6] 0.011 | [7] -0.052 | [8] -0.011 | [9] 0.01 | [10] 0.016 | [11] -0.017 | [12] 0.018 | [13] 0.006 | [14] -0.105 | [15] -0.006 | [16] 0.048 | [17] -0.025 | [18] -0.04 | [19] 0.002 | [20] 0.002

AHCYL1 (UniProt O43865)
inactive: [1] -0.015 | [2] 0.018 | [3] -0.034 | [4] -0.009 | [5] -0.006 | [6] 0.008 | [7] -0.073 | [8] -0.024 | [9] 0.009 | [10] 0.007 | [11] 0.014 | [12] -0.02 | [13] -0.004 | [14] 0.022 | [15] 0.003 | [16] 0.016 | [17] -0.065 | [18] -0.028 | [19] 0.009 | [20] 0.021

ADSL (UniProt P30566)
inactive: [1] -0.01 | [2] -0.038 | [3] 0.052 | [4] -0.009 | [5] -0.005 | [6] -0.009 | [7] 0.015 | [8] 0.011 | [9] 0.02 | [10] 0.007 | [11] 0.002 | [12] 0.007 | [13] -0.008 | [14] 0.002 | [15] -0.006 | [16] -0.016 | [17] -0.019 | [18] -0.038 | [19] 0.004 | [20] -0.007

ADSS1 (UniProt Q8N142)
inactive: [1] -0.014 | [2] -0.02 | [3] 0.027 | [4] 0.023 | [5] -0.076 | [6] -0.018 | [7] 0.007 | [8] 0.01 | [9] 0.017 | [10] 0.067 | [11] 0.018 | [12] 0.009 | [13] -0.018 | [14] -0.028 | [15] 0.005 | [16] -0.029 | [17] -0.034 | [18] 0.017 | [19] -0.019 | [20] 0

ACSL3 (UniProt O95573)
inactive: [1] 0.054 | [2] 0.045 | [3] 0.107 | [4] 0.003 | [5] 0.015 | [6] -0.033 | [7] -0.005 | [8] -0.03 | [9] 0.049 | [10] 0.025 | [11] -0.036 | [12] -0.005 | [13] 0.022 | [14] -0.023 | [15] -0.074 | [16] 0.029 | [17] -0.006 | [18] 0.008 | [19] 0.017 | [20] 0.041

ACSS2 isoform 2 (UniProt Q9NR19)
inactive: [1] 0.008 | [2] 0.025 | [3] -0.014 | [4] -0.006 | [5] 0.009 | [6] -0.021 | [7] -0.002 | [8] 0.07 | [9] -0.003 | [10] -0.026 | [11] -0.026 | [12] -0.003 | [13] 0.01 | [14] 0.029 | [15] -0.014 | [16] 0.02 | [17] 0.034 | [18] -0.041 | [19] 0.029 | [20] 0.002

ACTBL2 (UniProt Q562R1)
inactive: [1] -0.037 | [2] -0.163 | [3] 0.02 | [4] 0.043 | [5] 0.118 | [6] 0.004 | [7] 0.024 | [8] 0.064 | [9] 0.109 | [10] -0.006 | [11] 0.001 | [12] -0.016 | [13] 0.006 | [14] 0.082 | [15] -0.034 | [16] 0.086 | [17] 0.069 | [18] -0.043 | [19] 0.017 | [20] 0.123

ACTR6 (UniProt Q9GZN1)
inactive: [1] -0.061 | [2] 0.003 | [3] -0.01 | [4] -0.017 | [5] 0.008 | [6] 0.005 | [7] -0.029 | [8] -0.024 | [9] -0.061 | [10] 0.003 | [11] 0.087 | [12] 0.016 | [13] -0.01 | [14] -0.073 | [15] -0.036 | [16] -0.192 | [17] -0.069 | [18] 0.021 | [19] 0.058 | [20] -0.027

From the supplement of paper PMC10849652
